The values below come from publication PMC8754130, “A Peptide from Budding Yeast GAPDH Serves as a Promising Antifungal against Cryptococcus neoformans” (Microbiology Spectrum, 2022).

Structures are written as SMILES. Values joined by “and” are separate entries in the source; they are usually repeats but may differ in a detail not shown here. Equal values may be shown once.

This assay deals with Candida albicans. Put plainly: MIC, micro-broth dilution (CLSI M27-A4). The class given is cell-based. The settings on record: C. albicans (SC5314), laboratory stock, three independent experiments. As to the method: The MIC of the peptide was determined using a standardized micro-broth dilution method with a panel of pathogenic yeast strains (C. albicans, […], C. neoformans, and C. gattii) and bacterial strains (Escherichia coli, Micrococcus luteus, Staphylococcus aureus, and Pseudomonas aeruginosa).
The value of the MIC was defined as the lowest concentration of drugs showing no yeast growth. The MIC was determined by three independent repeats, each repeat in quintuplicate.
Background: Dilution methods test growth across graded concentrations, often in twofold steps.

With `C[C@@H]1[C@H](O)[C@@H](C)/C=C/C=C/C=C/C=C/C=C/C=C/C=C/[C@H](O[C@@H]2O[C@H](C)[C@@H](O)[C@H](N)[C@@H]2O)C[C@@H]2O[C@](O)(C[C@@H](O)C[C@@H](O)[C@H](O)CC[C@@H](O)C[C@@H](O)CC(=O)O[C@H]1C)C[C@H](O)[C@H]2C(=O)O` [AmB, amphotericin B], the MIC was 0.4 µM and 0.37 µg/mL.

What is called MIC is the least concentration at which growth counts as inhibited. The low end stands for a more susceptible organism, the high end for a less susceptible organism.
